Screen size: about 320,000 compounds; about 2,100 (0.66%) were called active. The shares of active, inactive and inconclusive entries below differ from those in the screen. The call rests on the fitted dose curve; in most records, active means well fitted inhibition curve with a large enough effect in the signal ratio, with a control signal flat (not every such curve was filed as active); inconclusive means small, poorly fitted or top-dose-only effect, or effect the other way, or a change in a side signal; inactive means flat fitted curve, though single readings scatter; the % refers to the signal ratio. Where the call is inconclusive, the potency comes from a doubtful curve fit.
Experiment: qHTS Assay for Lipid Storage Modulators in Drosophila S3 Cells
Settings: BODIPY lipid droplet fluorescence, 18-24 h, cells fed with added oleic acid; lipid storage change, negative = inhibition: at 46.1 µM (top of the series) unless noted
Method in brief: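 Drosophila S3 cells loaded with oleic acid (400 uM, as added) and compounds at several concentrations; lipid droplets imaged by 488-nm laser-scanning cytometry, 500–530 nm intensity and object ratio to cell channel. Percent activity normalized to 20 uM Triacsin C.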
On the % scale 0 is the no-effect control and ±100 the full control effect; potency means the concentration at half of the fitted maximal effect.

Lipid storage change, negative = inhibition, inconclusive:
CCN(CCNC(=O)C1CCCN(S(=O)(=O)CC)C1)c1ccccc1 (centres undefined) -20.3%
CCc1nc2c(sc3nc4c(cc32)COC(C)(C)C4)c(=O)n1CCN(CC)CC 0.624%
Cc1nc(SCC(C)C)[nH]c(=O)c1Cc1ccccc1 -0.302%
CNC(=S)NNC(=O)c1sccc1OCc1cccc(C(F)(F)F)c1 49.7%
COc1cccc(C(=O)c2ncc(C(F)(F)F)cc2Cl)c1 0.464%
COCCN(C(=O)COC(=O)CC(C)c1ccccc1)c1c(N)n(Cc2ccccc2)c(=O)[nH]c1=O (centres undefined)
Cn1c(SCC(=O)NCC2CCCO2)ncc(C(=O)Nc2ccc(F)cc2)c1=O (centres undefined) 4.12%
O=C(NC1CCCCC1)NC1CCN(CC(=O)N2CCOCC2)CC1 18%
CC(C)Oc1ccc(C2NC(=O)NC2=O)cc1 (centres undefined) -14.8%
O=C(NNC(=O)c1cccs1)c1ccc(Cl)c(Cl)c1 -1.69%
Cc1ccc(C(O)CCc2ccc(N)cc2)cc1 (centres undefined) 13.1%
C/C(=N/Oc1nc(C)cc(C)n1)c1ccc(F)cc1 9.28%
CCOC(=O)c1[nH]c2ccc(F)cc2c1NC(=O)Nc1ccccc1OC -34%
COc1ccc(CN2CCC(Cc3ccccc3)CC2)cc1OC -7.47%
CCOC(=O)/C=C1\Nc2ccccc2OC1=O 16.2%
Cc1ccc(NC(=O)C2CC(=O)N(C(C)C)C2)cc1C (centres undefined) 31.7%
CN(CC1CCN(CCc2cccc(C(F)(F)F)c2)CC1)C(=O)c1ccc(F)cc1 1.27%
O=C(c1cccc(-c2ccccc2F)c1)N1CC[C@@H](N2CCC(O)CC2)[C@H](O)C1 -24.8%
O=C(Nc1ccc(N2CCOCC2)cc1)C1CCCCC1 11.2%
Cc1cccc(Nc2nc3c(S(=O)(=O)c4ccccc4)nnn3c3ccccc23)c1 80.8%
O=C(CSc1ccc2nnc(-c3ccncc3)n2n1)Nc1ccccc1F -21.7%

Pulled by structure from the list above:
Lipid storage change, negative = inhibition, inconclusive:
COc1ccc(CN2CCC(Cc3ccccc3)CC2)cc1OC -7.47%
CC(C)Oc1ccc(C2NC(=O)NC2=O)cc1 (centres undefined) -14.8%

Following part:

Potency, inconclusive:
COc1ccc(-c2nnc(SCc3nnc(-c4ccccc4)o3)n2-c2ccccc2)cc1 0.206 µM [activator, full curve]
Cc1nnsc1NC(=O)OCc1ccc(C(C)(C)C)cc1 29.1 µM [falling, single point]
S=C(NCc1ccncc1)Nc1cc(Cl)cc(Cl)c1 29.1 µM [falling, single point]

Reference: PubChem BioAssay AID2685 (National Center for Advancing Translational Sciences (NCATS), 2010)
